Results as given in PMC5998563.
No constants are given. Whether binding was seen depends on the method and setting. In cells and extracts the contact can be indirect. Some binding calls cover weakened binding; strength is not graded here. Tags and fused reporters may be left off the sequences shown.

Chains of the proteins cited; added tags and fusions are not shown. Residues count along the entry.
UniProt P38646, residues 47-679: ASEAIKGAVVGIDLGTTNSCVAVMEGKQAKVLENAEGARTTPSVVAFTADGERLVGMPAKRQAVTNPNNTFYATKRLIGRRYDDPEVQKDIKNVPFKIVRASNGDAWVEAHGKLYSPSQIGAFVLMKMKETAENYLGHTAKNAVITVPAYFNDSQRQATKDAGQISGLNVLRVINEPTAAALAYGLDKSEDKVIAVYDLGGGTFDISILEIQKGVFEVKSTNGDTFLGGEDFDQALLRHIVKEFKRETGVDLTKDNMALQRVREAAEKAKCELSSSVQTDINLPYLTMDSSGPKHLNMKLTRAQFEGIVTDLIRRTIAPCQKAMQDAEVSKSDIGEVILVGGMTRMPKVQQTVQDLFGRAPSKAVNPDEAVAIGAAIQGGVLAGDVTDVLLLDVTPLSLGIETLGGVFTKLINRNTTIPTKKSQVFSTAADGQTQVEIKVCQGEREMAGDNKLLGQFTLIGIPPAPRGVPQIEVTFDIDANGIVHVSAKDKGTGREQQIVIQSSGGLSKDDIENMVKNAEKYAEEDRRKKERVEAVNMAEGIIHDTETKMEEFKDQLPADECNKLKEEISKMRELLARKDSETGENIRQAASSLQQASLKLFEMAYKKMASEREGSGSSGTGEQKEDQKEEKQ

Target: 75 kDa glucose-regulated protein (GRP75) (human (endogenous in primary myoblasts)) (UniProt P38646)
Assay: proximity ligation; Duolink II in situ PLA in human myoblasts transfected with empty vector (pCMV) or mycREDD1; cells fixed with 4% formaldehyde, permeabilized with 0.1% Triton X100; fluorescence read-out

binding: binds
B1: murine REDD1 fused to Myc (protein, UniProt Q9D3F7 1-229)
chain: MPSLWDRFSSSSSSSSSSRTPAADRPPRSAWGSAAREEGLDRCASLESSDCESLDSSNSGFGPEEDSSYLDGVSLPDFELLSDPEDEHLCANLMQLLQESLSQARLGSRRPARLLMPSQLVSQVGKELLRLAYSEPCGLRGALLDVCVEQGKSCHSVAQLALDPSLVPTFQLTLVLRLDSRLWPKIQGLLSSANSSLVPGYSQSLTLSTGFRVIKKKLYSSEQLLIEEC
